# EP0435946B1, “METHODS FOR MODIFYING THE BINDING OF CELL ADHESION RECEPTORS” (LA JOLLA CANCER RESEARCH FOUNDATION, priority 1988, dated 1990)
# Chains of the proteins cited; added tags and fusions are not shown. Residues count along the entry.
# UniProt P08648, 895-1049 partner limits assumed: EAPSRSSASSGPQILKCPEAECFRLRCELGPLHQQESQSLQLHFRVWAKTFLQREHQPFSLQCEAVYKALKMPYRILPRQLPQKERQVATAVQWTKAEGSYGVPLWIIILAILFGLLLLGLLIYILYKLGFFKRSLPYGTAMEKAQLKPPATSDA
# UniProt P08648, 42-894 limits assumed: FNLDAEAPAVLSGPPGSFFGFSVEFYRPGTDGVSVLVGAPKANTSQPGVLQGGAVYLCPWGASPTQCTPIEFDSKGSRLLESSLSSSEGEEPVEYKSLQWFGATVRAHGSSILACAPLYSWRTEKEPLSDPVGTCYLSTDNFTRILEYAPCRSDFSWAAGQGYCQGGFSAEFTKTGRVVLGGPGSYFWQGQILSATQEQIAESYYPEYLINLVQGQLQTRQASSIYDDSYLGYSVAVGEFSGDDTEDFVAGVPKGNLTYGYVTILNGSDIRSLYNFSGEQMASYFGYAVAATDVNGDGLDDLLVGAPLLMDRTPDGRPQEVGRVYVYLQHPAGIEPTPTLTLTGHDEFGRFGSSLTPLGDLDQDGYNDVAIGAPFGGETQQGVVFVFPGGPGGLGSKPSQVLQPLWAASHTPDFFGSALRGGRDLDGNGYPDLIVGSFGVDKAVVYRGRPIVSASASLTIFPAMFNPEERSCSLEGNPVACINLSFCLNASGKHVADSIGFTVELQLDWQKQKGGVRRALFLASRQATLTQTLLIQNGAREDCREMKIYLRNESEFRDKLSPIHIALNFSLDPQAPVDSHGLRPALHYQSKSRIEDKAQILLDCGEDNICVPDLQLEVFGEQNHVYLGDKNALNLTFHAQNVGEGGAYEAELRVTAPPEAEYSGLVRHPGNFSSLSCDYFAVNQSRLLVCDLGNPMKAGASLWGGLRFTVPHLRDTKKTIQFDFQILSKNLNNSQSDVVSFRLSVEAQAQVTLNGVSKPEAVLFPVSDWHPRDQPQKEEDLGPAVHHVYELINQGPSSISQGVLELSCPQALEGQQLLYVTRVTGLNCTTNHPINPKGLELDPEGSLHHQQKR
# Part of at least one peptide drawing is inferred or uncertain, most often the ends. Where no end group is shown, it is not given here.
# Assays:
# [1] = test system: A375M cells; assay: MICS assay, inhibition of tumor cell invasion by adhesion peptides; assay type: cell-based, human; details: in either cation (100µM MnCl₂ or CaCl₂)
# [2] = target: fibronectin receptor (Homo sapiens, UniProt P05556+P08648); assay: Fibronectin receptor ELISA, inhibition of receptor binding to solid-phase fibronectin; design: from tissue; host or cells: human placenta; details: ELISA in the presence of Mn²⁺, Figure 4
substance,measurement,setting,value
GRGESP [GRGESP],"effect on invasion, result in words",[1],no effect
same,times less inhibitory than GRGDSP,[2],2000 times
